From article PMC11466968 come the findings set out here.

Chains of the proteins cited; added tags and fusions are not shown. Lines headed by an entry give the natural chain unless they say otherwise; changes in a name come on top.
UniProt O95817: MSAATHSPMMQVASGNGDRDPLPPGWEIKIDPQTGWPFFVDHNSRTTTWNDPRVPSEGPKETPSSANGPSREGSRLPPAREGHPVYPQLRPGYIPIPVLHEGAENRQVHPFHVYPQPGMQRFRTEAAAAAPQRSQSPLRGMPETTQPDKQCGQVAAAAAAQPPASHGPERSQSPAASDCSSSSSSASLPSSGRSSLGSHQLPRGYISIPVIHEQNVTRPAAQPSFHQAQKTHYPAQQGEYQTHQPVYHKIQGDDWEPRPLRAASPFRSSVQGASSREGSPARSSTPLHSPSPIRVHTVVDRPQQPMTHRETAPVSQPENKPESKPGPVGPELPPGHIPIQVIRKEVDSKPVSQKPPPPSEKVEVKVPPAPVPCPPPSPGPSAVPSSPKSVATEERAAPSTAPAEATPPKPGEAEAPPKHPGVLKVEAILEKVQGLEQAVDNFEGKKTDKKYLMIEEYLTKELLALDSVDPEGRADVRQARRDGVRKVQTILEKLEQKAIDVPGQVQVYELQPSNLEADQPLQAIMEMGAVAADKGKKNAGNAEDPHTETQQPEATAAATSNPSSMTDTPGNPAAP
UniProt Q13554: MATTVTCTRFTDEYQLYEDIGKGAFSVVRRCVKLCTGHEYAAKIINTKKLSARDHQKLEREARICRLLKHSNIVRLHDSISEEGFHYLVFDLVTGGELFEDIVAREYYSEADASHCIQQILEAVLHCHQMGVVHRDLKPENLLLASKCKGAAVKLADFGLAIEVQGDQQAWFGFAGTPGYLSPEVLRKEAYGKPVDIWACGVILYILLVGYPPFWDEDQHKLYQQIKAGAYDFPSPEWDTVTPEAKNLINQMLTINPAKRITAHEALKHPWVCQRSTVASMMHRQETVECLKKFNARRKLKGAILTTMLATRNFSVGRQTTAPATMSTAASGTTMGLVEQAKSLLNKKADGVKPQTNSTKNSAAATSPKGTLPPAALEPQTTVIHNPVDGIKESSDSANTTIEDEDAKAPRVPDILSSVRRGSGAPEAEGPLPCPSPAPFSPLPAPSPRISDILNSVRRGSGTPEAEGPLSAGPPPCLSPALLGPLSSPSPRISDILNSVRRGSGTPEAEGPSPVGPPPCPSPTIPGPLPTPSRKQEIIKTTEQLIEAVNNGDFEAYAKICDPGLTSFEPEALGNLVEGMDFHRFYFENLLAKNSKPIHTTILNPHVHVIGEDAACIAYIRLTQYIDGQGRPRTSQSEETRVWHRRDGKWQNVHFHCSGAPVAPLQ

The target in this test is BAG3 (form in the experiment not stated) (UniProt O95817). The test can be described thus: co-IP; HEK293 transfected with the indicated plasmids; treated with MG132 (Fig. 4B, D, E) or not (Fig. 4B, F, G); immunoprecipitation with the indicated antibody; NP-40 alternative lysis buffer, 4 °C.

No constants are given. Whether binding was seen depends on the method and setting. Binding seen in cells or lysates may run through a third protein. Binding calls can cover weak binding; strength is not graded here.

With “CaMKIIβ (T287A)-4FLAG (from UniProt Q13554) (enzyme)”, the binding result is listed as “binds”.
